Measured values as given in PubChem BioAssay AID2685 (National Center for Advancing Translational Sciences (NCATS), 2010).
In all, about 320,000 compounds went through this assay and about 2,100 (0.66%) were called active. The inconclusive results got no clear call from the source; some entries with a clear call stand among them for comparison. The call rests on the fitted dose curve; in most records, active means well fitted inhibition curve with a large enough effect in the signal ratio, with a control signal flat (not every such curve was filed as active); inconclusive means small, poorly fitted or top-dose-only effect, or effect the other way, or a change in a side signal; inactive means flat fitted curve, though single readings scatter; the % refers to the signal ratio. Potencies beside an inconclusive call are fits to weak or partial responses and may not hold up.

test: qHTS Assay for Lipid Storage Modulators in Drosophila S3 Cells; conditions: BODIPY lipid droplet fluorescence, 18-24 h, cells fed with added oleic acid; lipid storage change, negative = inhibition: at 46.1 µM (top of the series) unless noted
Outline: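 Laser-scanning cytometry quantifies lipid droplet accumulation (500–530 nm total intensity; droplet/cell object ratio) in oleic acid-fed (400 uM added) Drosophila S3 cells treated with a concentration series. 20 uM Triacsin C defined 100% inhibition.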
On the % scale 0 is the no-effect control and ±100 the full control effect; potency means the concentration at half of the fitted maximal effect.

| SMILES | lipid storage change, negative = inhibition | Potency |
| --- | --- | --- |
| Cn1c(-c2sc3cc(C(F)(F)F)cnc3c2-c2cccs2)n[nH]c1=S | inactive: -9.3% | – |
| CCc1cn(C2CC(O)C(CO)O2)c(=O)[nH]c1=O (stereo unspecified) | inconclusive: 2.44% | – |
| Nn1c(SCC(=O)Nc2nccs2)nnc1-c1cccnc1 | – | inconclusive: 29.1 µM [activator, single point] |
| CCSc1nnc(NC(=O)CCNS(=O)(=O)c2ccccc2F)s1 | inconclusive: -27.4% | – |
| Cc1ccc(OCC(=O)NC(=S)Nc2ccc(Br)cn2)cc1 | inconclusive: -26.5% | – |
| CN(C)S(=O)(=O)c1ccc(NC=C(C#N)C#N)cc1 | inactive: -23.2% | – |
| CCN1C(=O)NC2C1N(S(C)(=O)=O)CCN2S(C)(=O)=O (stereo unspecified) | – | inconclusive: 3.26 µM [activator, single point] |
| CCCNC(=O)C1CCN(S(=O)(=O)c2ccc3nc4c(c(C(=O)O)c3c2)CCCCC4)CC1 | inactive: 18.1% | – |
| CC(C)NC(=O)CN(CCc1ccccc1)S(C)(=O)=O | – | inconclusive: 0.651 µM [falling, partial curve, poor fit] |
| CC(C)(C)NC(=O)c1cc2c(ccc3ccccc32)oc1=O | inconclusive: -70.7% | – |
| CCOc1cc(N2CCOCC2)c(OCC)cc1NC(=O)Cn1[nH]c(=O)c2ccccc2c1=O | inactive: 5.54% | – |
| O=C(Nc1ccc(Cn2cccn2)cc1)c1ccc(COc2ccc(Br)cc2)cc1 | inconclusive: 20.9% | – |
| CCN(CC(=O)Nc1cc(Cl)ccc1C)C(=O)Cn1c(=O)cnc2ccccc21 | inconclusive | – |
| COc1cccc(NC(=O)N2CCN(S(C)(=O)=O)CC2)c1 | – | inconclusive: 23.1 µM [falling, single point] |
| Cc1ccc(N2C(=O)CN(Cc3ccccc3)C2=S)cc1C | – | inconclusive: 0.082 µM [activator, full curve, poor fit] |
| Cc1ccc(C)c(N(CC(=O)N2CCCC2)S(C)(=O)=O)c1 | inconclusive: 18.4% | – |
| O=Cc1[nH]c2ccccc2c1N(C(=O)CCl)c1ccccc1 | – | inconclusive: 25.9 µM [falling, single point] |
| COc1ccccc1-c1noc(CCC(=O)NC2CCCC2)n1 | – | inconclusive: 20.6 µM [activator, single point] |
| COc1ccc(C2CC(c3ccccc3OC(C)=O)=NN2C(C)=O)cc1 (stereo unspecified) | inconclusive: 2.55% | – |
| Cc1ccc(OCC(=O)Nc2ccc(S(=O)(=O)N3CCOCC3)cc2)c(Br)c1 | inconclusive: -6.23% | – |
| S=C(Nc1ccc(Cl)cc1)Nc1cccc2cnccc12 | inconclusive: -12.1% | – |
| O=C(c1ccco1)N1c2ccccc2Sc2ccccc21 | inconclusive: -18.2% | – |
| Cc1cc(NC(=O)CSC2=NS(=O)(=O)c3ccccc3N2)no1 | inconclusive: 33.9% [at 0.0737 µM] | – |
| Cc1ccnc(NC(=O)CCCNC(=O)c2ccc(Cl)cc2)c1 | inconclusive: 23.9% | – |
| O=c1cc(N2CCCCC2)nc2n1CCCS2 | inconclusive: 60.8% | – |
| COc1ccc(S(=O)(=O)N2CCCC(C(=O)O)C2)cc1 (stereo unspecified) | inconclusive: -139% | – |

| SMILES | lipid storage change, negative = inhibition | Potency |
| --- | --- | --- |
| CCOC(=O)c1ccc(NC2c3ccccc3C(=O)N2c2ccc(C)cn2)cc1 (stereo unspecified) | inconclusive: -1.18% | – |
| Cc1ccc(C(C)C)c(OCCN2CCc3ccccc3C2)c1 | inactive: -43.6% | – |
| CC(=O)Oc1ccccc1-c1nc(/C=C/c2ccccc2)no1 | – | inconclusive: 6.51 µM [activator, single point] |
| C/C(=N\O)C1CC(CC(=O)O)C1(C)C (stereo unspecified) | – | active: 2.06 µM |
| CCOC(=O)c1c(NC(=S)NCC2CCCO2)sc(C)c1C (stereo unspecified) | inconclusive: -0.0604% | – |
| COc1ccc2nc(NC(=O)CSC3=NCCS3)sc2c1 | – | inconclusive: 2.06 µM [activator, partial curve] |
| CCCOc1ccc(N2CC(C(=O)Nc3ccccc3F)CC2=O)cc1 (stereo unspecified) | inconclusive: 11.2% | – |
| O=C(CSc1nnc2ccccn12)NCCc1ccc(F)cc1 | inconclusive: 10.8% | – |
| COc1cc(NC(=O)c2cc(Br)cc(C)c2OC)ccc1NC(=O)C(C)C | inconclusive: 122% | – |
| Cc1ccccc1CC(=O)Nc1ccc(S(=O)(=O)N2CCOCC2)cc1 | – | inconclusive: 0.58 µM [activator, single point] |
| CCOC(=O)NC(=O)C(=CNc1ccccc1C)C(=O)NC(=O)OCC | inconclusive: 1.8% | – |
| CCOC(=O)c1cn2nc(-c3ccc(OC)cc3)cc2nc1C1CCN(C(=O)OC(C)(C)C)CC1 | inconclusive: 13.8% | – |
| C=CCSC1=C(C#N)C(c2ccccc2C)CC(=O)N1 (stereo unspecified) | inconclusive: 22.4% | – |
| C=CCOc1ccc(C(=O)Nc2ccc3c(c2)n(C)c(=O)n3C)cc1 | inconclusive: -57.9% | – |
| O=C(CN1C(=O)C2CC=C(Cl)CC2C1=O)NCc1ccccc1 (stereo unspecified) | inconclusive: -33.1% | – |
| O=C(Nc1cccc(S(=O)(=O)N2CCOCC2)c1)C1=NN(c2ccccc2)C(=O)CC1 | inconclusive: -7.87% | – |
| O=C(NN1C(=O)/C(=C/C=C/c2ccco2)SC1=S)c1ccncc1 | – | inconclusive: 3.26 µM [activator, single point] |
| Cc1c(Cl)cccc1NC(=O)CCN1CCN(CCO)CC1 | – | inconclusive: 0.517 µM [activator, full curve, poor fit] |
| O=C(O)c1cccc(NC(=S)N/N=C/c2ccccn2)c1 | inconclusive: 11.4% | – |
| CC(C)(C)c1ccc(C(=O)O/N=C(\N)c2ccccn2)cc1 | – | inconclusive: 0.13 µM [falling, full curve, poor fit] |
| O=C(c1cccc(Cl)c1)N1CCC(=O)N(C(COCc2ccccc2)Cc2ccccc2)CC1 (stereo unspecified) | inconclusive: 33.9% | – |
| O=C(O)c1cccc([N+](=O)[O-])c1C(=O)Nc1ccc2ccccc2c1 | inconclusive: 172% | – |
| CCOc1cc(C(=O)N2CCN(c3ccc(C(C)=O)cc3)CC2)cc(OCC)c1OCC | – | inconclusive: 8.2 µM [activator, partial curve] |
| Cc1ccccc1CN1CCc2c(OCC(=O)N3CCCc4ccccc43)cccc2C1=O | – | inconclusive: 29.1 µM [falling, single point] |
| COC(=O)c1ccccc1NC(=O)CSCC(=O)Nc1ccc(F)cc1 | inconclusive: -4.51% | – |

Arranged by SMILES length (rising): part of the list above.

| SMILES | lipid storage change, negative = inhibition | Potency |
| --- | --- | --- |
| CC(=O)Oc1ccccc1-c1nc(/C=C/c2ccccc2)no1 | – | inconclusive: 6.51 µM [activator, single point] |
| CCOC(=O)NC(=O)C(=CNc1ccccc1C)C(=O)NC(=O)OCC | inconclusive: 1.8% | – |
| CCOC(=O)c1ccc(NC2c3ccccc3C(=O)N2c2ccc(C)cn2)cc1 (stereo unspecified) | inconclusive: -1.18% | – |
| CCOC(=O)c1cn2nc(-c3ccc(OC)cc3)cc2nc1C1CCN(C(=O)OC(C)(C)C)CC1 | inconclusive: 13.8% | – |
